Values from PubChem BioAssay AID1508597 (Cure First, 2020).
Shown is an unselected part of the about 2,100 reagents, under one of the conditions tested. 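Calls flag viability under 80% in either arm, not effects specific to rucaparib; the reference for percent is not stated.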 Some reagents were tested in more than one well and are listed for each. Reagent sequences are not shown. Not given: the 100% reference.

- Test: 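Genes whose silencing sensitises or protects ovarian cancer cells against rucaparib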 (primary screen)
- Cell system: human ovarian carcinoma lines grown from tumours: OCI-P5x (papillary serous) and OCI-C5x (clear cell)
- Reagents: siRNA pool against human genes, 1.25 pmol siRNA per well
- Timing: 72 h or 96 h, depending on the cell culture
- Conditions: rucaparib 20 µM (about IC30) or vehicle, present until read-out
- Rucaparib or vehicle: Vehicle
- Cell line: OCI-P5x (serous)
- Detection: 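ATP luminescence measured at 72 or 96 h according to the culture, then normalised and expressed as percent viability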
- Scale: viability, normalised: higher = more viable cells remaining
- Rule for the call: 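a well counts as a hit if its normalised viability is under 80 percent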
- Meaning of the calls: active = viability under 80%; inactive = viability 80% or more

| gene knocked down | technical replicate | viability, normalised (%) | call |
| --- | --- | --- | --- |
| ZNF623 (zinc finger protein 623) | 1 | 84.9 | inactive |
| ZNF623 (zinc finger protein 623) | 2 | 83.6 | inactive |
| ZNF623 (zinc finger protein 623) | 3 | 79.1 | active |
| STK17A (serine/threonine kinase 17a) | 1 | 85.2 | inactive |
| STK17A (serine/threonine kinase 17a) | 2 | 82.8 | inactive |
| STK17A (serine/threonine kinase 17a) | 3 | 75.4 | active |
| NME4 (NME/NM23 nucleoside diphosphate kinase 4) | 1 | 88 | inactive |
| NME4 (NME/NM23 nucleoside diphosphate kinase 4) | 1 | 64.1 | active |
| NME4 (NME/NM23 nucleoside diphosphate kinase 4) | 1 | 64.4 | active |
| NME4 (NME/NM23 nucleoside diphosphate kinase 4) | 2 | 80 | active |
| NME4 (NME/NM23 nucleoside diphosphate kinase 4) | 2 | 77.7 | active |
| NME4 (NME/NM23 nucleoside diphosphate kinase 4) | 2 | 56.4 | active |
| NME4 (NME/NM23 nucleoside diphosphate kinase 4) | 3 | 55.7 | active |
| NME4 (NME/NM23 nucleoside diphosphate kinase 4) | 3 | 68.6 | active |
| NME4 (NME/NM23 nucleoside diphosphate kinase 4) | 3 | 87.9 | inactive |
| PRG3 (proteoglycan 3, pro eosinophil major basic protein 2) | 1 | 64.1 | active |
| PRG3 (proteoglycan 3, pro eosinophil major basic protein 2) | 2 | 89.5 | inactive |
| PRG3 (proteoglycan 3, pro eosinophil major basic protein 2) | 3 | 137 | inactive |
| NPR2 (natriuretic peptide receptor 2) | 1 | 93.4 | inactive |
| NPR2 (natriuretic peptide receptor 2) | 2 | 78.5 | active |
| NPR2 (natriuretic peptide receptor 2) | 3 | 75.6 | active |
| PAK5 (p21 (RAC1) activated kinase 5) | 1 | 65.3 | active |
| PAK5 (p21 (RAC1) activated kinase 5) | 2 | 69.6 | active |
| PAK5 (p21 (RAC1) activated kinase 5) | 3 | 78.6 | active |
| MORF4L2 (mortality factor 4 like 2) | 1 | 56.5 | active |
| MORF4L2 (mortality factor 4 like 2) | 2 | 76.1 | active |
| MORF4L2 (mortality factor 4 like 2) | 3 | 63.8 | active |
| EPAS1 (endothelial PAS domain protein 1) | 1 | 70.1 | active |
| EPAS1 (endothelial PAS domain protein 1) | 2 | 74.8 | active |
| EPAS1 (endothelial PAS domain protein 1) | 3 | 72.4 | active |
| LBR (lamin B receptor) | 1 | 61.1 | active |
| LBR (lamin B receptor) | 2 | 72.9 | active |
| LBR (lamin B receptor) | 3 | 65.1 | active |
| NPM2 (nucleophosmin/nucleoplasmin 2) | 1 | 60.7 | active |
| NPM2 (nucleophosmin/nucleoplasmin 2) | 2 | 71.1 | active |
| NPM2 (nucleophosmin/nucleoplasmin 2) | 3 | 84.3 | inactive |
| CDK18 (cyclin dependent kinase 18) | 1 | 70.3 | active |
| CDK18 (cyclin dependent kinase 18) | 2 | 79.5 | active |
| CDK18 (cyclin dependent kinase 18) | 3 | 68.5 | active |

A run of entries from the list above, as a working copy:
| gene knocked down | technical replicate | viability, normalised (%) | call |
| --- | --- | --- | --- |
| LBR (lamin B receptor) | 3 | 65.1 | active |
| NPM2 (nucleophosmin/nucleoplasmin 2) | 1 | 60.7 | active |
